In paper PMC4873810 one finds binding data, which are given here for one substance.

The target of this assay is T1, Scube2 (signal peptide, CUB domain, epidermal growth factor (EGF)-like protein 2), full-length, FLAG-tagged (human) (UniProt Q9NQ36).
T1 sequence: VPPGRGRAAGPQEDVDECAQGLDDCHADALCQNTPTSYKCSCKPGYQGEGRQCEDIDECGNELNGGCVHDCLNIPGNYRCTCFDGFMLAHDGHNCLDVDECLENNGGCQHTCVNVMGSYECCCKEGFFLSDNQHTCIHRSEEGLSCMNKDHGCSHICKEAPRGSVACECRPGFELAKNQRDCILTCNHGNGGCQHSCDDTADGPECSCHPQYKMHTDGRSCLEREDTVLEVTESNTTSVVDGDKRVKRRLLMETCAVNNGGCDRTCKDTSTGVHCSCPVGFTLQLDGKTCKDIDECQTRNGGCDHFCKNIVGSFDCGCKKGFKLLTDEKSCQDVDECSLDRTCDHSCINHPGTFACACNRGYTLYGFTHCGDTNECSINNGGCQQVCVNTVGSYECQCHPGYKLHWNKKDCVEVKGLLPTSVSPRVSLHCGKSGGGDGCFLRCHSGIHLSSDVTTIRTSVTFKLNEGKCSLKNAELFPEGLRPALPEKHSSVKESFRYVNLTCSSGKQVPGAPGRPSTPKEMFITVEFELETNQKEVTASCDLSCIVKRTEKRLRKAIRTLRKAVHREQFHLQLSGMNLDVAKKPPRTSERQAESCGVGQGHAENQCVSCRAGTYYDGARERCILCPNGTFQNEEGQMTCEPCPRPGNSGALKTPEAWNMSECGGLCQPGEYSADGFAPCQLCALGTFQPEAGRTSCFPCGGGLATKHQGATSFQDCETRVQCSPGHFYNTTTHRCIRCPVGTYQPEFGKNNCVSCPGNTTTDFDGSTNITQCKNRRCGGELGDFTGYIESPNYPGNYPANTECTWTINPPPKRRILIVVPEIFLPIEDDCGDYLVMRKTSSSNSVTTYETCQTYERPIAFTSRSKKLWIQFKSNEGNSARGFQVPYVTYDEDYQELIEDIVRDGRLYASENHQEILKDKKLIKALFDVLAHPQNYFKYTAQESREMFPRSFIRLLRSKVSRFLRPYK
The assay can be described thus: co-IP; reciprocal: α-FLAG antibodies coupled to Protein A beads precipitate Scube2 or Scube2Δ from media; blot for Shh.

These are yes or no findings as the source states them, for the method shown. Binding seen in cells or lysates may run through a third protein. Where a sequence is shown, tags or fusion partners need not be part of it.

Turning to full-length Shh^C25S (mouse), the binding result was “no binding”.
